Reference: paper PMC5059474
Results are given in words; binding and its absence hold for the method and conditions named. In cells and extracts the contact can be indirect.

Chains of the proteins cited; added tags and fusions are not shown.
UniProt Q12888: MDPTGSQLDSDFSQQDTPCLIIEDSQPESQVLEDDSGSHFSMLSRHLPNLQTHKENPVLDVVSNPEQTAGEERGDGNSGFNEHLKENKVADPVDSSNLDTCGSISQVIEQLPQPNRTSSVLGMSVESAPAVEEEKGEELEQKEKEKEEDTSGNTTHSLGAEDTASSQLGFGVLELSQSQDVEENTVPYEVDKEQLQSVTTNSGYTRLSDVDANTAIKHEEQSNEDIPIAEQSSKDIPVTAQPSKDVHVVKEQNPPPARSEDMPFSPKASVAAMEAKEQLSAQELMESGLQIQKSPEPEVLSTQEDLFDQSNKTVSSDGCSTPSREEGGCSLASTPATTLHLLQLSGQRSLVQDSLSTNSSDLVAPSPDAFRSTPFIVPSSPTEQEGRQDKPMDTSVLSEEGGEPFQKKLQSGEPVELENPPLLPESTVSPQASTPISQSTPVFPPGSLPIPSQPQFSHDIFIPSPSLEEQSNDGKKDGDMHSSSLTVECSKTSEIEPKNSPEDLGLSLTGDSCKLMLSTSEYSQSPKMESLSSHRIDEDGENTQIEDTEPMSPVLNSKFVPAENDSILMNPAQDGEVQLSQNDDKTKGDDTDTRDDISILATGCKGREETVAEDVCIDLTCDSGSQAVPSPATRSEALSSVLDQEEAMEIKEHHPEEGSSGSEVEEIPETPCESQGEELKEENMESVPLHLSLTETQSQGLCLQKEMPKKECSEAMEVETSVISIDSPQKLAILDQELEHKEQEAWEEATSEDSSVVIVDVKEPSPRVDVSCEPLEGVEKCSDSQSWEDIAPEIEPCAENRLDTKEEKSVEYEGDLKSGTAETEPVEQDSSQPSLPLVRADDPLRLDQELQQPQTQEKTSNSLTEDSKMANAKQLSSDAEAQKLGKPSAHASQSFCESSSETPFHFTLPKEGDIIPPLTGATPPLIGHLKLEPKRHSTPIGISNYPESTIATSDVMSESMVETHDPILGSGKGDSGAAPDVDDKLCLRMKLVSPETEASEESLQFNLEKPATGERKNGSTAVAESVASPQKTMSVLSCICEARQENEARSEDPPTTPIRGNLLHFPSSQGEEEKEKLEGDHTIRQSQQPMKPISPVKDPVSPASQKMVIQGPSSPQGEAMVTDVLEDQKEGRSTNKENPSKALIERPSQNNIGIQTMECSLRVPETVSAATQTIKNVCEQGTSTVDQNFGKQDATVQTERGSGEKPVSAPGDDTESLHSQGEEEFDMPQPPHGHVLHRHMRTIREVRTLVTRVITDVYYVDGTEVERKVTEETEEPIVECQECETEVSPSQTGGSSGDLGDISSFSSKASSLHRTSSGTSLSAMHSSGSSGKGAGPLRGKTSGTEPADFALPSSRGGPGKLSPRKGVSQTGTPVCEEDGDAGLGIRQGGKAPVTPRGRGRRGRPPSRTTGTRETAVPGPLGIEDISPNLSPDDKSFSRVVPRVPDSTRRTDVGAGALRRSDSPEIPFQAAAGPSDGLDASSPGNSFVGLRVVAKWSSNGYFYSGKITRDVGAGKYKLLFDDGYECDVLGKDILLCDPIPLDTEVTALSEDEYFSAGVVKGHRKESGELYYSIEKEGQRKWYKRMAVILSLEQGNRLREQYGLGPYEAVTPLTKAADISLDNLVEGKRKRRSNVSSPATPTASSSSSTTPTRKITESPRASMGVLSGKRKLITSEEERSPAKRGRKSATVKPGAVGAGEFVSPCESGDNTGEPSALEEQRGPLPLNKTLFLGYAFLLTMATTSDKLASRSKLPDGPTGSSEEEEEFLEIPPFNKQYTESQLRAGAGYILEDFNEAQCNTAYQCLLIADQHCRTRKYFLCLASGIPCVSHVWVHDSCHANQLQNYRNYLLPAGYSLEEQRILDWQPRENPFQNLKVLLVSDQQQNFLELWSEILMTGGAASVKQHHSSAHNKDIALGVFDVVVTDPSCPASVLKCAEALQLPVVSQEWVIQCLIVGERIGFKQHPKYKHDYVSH

Legend:
Test in all cases: co-IP; benzonase-treated nuclear extracts of HEK293 cells (mock, Bleo 30 μg/ml 1 h, 10–12 h recovery after Bleo, or IR 5 grey); IP with 2-5 μg antibody to the endogenous bait or control IgG and Protein A/G PLUS agarose; three washes with 20 mM HEPES pH 7.9, 150 mM KCl, 0.25% Triton-X-100; western blot
[1] = molecular target: polynucleotide kinase 3′ phosphatase (human (endogenous in HEK293)) (UniProt Q96T60)
[2] = molecular target: 53BP1 (human (endogenous in HEK293)) (UniProt Q12888)
[3] = molecular target: T1, Lig IV (human (endogenous in HEK293)) (UniProt P49917)
T1 sequence: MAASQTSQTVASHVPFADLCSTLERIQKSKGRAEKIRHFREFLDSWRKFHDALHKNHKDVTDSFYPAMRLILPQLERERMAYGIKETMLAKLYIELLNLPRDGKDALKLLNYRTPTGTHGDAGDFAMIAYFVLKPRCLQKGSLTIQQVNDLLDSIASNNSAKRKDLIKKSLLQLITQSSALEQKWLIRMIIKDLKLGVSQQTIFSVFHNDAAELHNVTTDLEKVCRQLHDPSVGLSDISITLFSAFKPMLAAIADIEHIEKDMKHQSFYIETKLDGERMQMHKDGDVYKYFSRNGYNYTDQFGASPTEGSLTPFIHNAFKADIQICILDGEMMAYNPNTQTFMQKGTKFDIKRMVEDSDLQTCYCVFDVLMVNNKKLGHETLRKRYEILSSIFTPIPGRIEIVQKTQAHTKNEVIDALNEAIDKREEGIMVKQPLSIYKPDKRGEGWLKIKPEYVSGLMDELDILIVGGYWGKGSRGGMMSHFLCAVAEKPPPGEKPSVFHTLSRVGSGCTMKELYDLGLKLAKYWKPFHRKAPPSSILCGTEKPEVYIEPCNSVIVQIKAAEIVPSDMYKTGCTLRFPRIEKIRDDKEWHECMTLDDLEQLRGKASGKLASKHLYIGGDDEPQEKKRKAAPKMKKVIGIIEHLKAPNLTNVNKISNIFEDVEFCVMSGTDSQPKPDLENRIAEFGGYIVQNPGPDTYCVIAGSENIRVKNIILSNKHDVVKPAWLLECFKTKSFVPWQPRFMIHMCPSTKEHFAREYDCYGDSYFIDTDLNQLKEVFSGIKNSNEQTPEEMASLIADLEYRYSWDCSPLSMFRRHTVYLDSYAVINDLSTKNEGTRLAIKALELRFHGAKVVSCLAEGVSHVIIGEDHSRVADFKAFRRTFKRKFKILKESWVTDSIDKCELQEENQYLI

Measured: binding

B1: RAD52 (protein, UniProt P43351 1-418)
chain: MSGTEEAILGGRDSHPAAGGGSVLCFGQCQYTAEEYQAIQKALRQRLGPEYISSRMAGGGQKVCYIEGHRVINLANEMFGYNGWAHSITQQNVDFVDLNNGKFYVGVCAFVRVQLKDGSYHEDVGYGVSEGLKSKALSLEKARKEAVTDGLKRALRSFGNALGNCILDKDYLRSLNKLPRQLPLEVDLTKAKRQDLEPSVEEARYNSCRPNMALGHPQLQQVTSPSRPSHAVIPADQDCSSRSLSSSAVESEATHQRKLRQKQLQQQFRERMEKQQVRVSTPSAEKSEAAPPAPPVTHSTPVTVSEPLLEKDFLAGVTQELIKTLEDNSEKWAVTPDAGDGVVKPSSRADPAQTSDTLALNNQMVTQNRTPHSVCHQKPQAKSGSWDLQTYSADQRTTGNWESHRKSQDMKKRKYDPS
no binding: [1] | [2] | [3]
